USRE36374E, “1,2,3-triazole and tetrazole substituted piperidine or tetrahydropyridine compounds useful as acetylcholine agonists” (priority 1987, dated 1999)
Structures can show the parent of a compound that is named as a salt. For at least one compound, name, drawing or mass did not settle the structure.

Target: central cholinergic receptors
Assay: 3H-oxotremorine-M (Oxo-M) displacement from rat brain homogenates
Format: binding
Settings: displacement of 3H-oxotremorine-M, pH 7.4, 40 min, 30° C
Protocol: Affinity to central cholinergic receptors in vitro was measured as the ability of the compounds to displace ^3 H-oxotremorine-M (Oxo-M) from rat brain homogenates, while affinity to central muscarinic M-1-receptors in vitro was measured as the ability of the compounds to displace ^3 H-pirenzepin (Pz) from rat brain homogenates.
^3 H-oxotremorine M binding
was performed essentially as described by Birdsdall et al., 1980. Briefly, rat brains were homogenized in 100 vol (w/v) 10 mM Na,K-phosphate buffer (pH 7.4) and aliquots incubated with ^3 H-oxotremorine M (84.9 Ci/m-mol, NEN) alone or in the presence of test compound in a total volume of 1.5 ml for 40 min. at 30° C. The reaction was stopped by adding 5 ml cold buffer and filtered through Whatman GF/B filters soaked previously in 0.1% polyethylenimin (Sigma) for minimum 30 min. The filters were washed once with the same volume of buffer, transferred to scintillation vials and extracted in scintillation fluid (Pico-fluor 15, Packard) for at least two hours before counted in a liquid scintillation spectrometer (Beckman LS 1800). Non-specific binding was estimated at 10 μM atropine and all estimations made in triplicate. At least two displacement curves were made for each compound tested.
Birdsdall N. J. M., Hulme E. C., and Burgen A. S. V. (1980). "The Character of Muscarinic Receptors in Different Regions of the Rat Brain". Proc. Roy. […]

C#CCn1nnc(C2=CCCNC2)n1 [Compound 22, 2-(2-Propynyl)-5-(1,2,5,6-tetrahydropyridyl)-2H-tetrazole, hydrochloride]
IC50: 14 nM
